This is an account of results in article doi:10.1101/2023.06.30.547269.

Results are given in words; binding and its absence hold for the method and conditions named. Where a sequence is shown, tags or fusion partners need not be part of it.

This experiment has as its target T1, PHYTOCHROME … FACTOR 4 (PIF4), yeast two-hybrid fusion (Arabidopsis thaliana) (UniProt Q8W2F3).
T1 sequence: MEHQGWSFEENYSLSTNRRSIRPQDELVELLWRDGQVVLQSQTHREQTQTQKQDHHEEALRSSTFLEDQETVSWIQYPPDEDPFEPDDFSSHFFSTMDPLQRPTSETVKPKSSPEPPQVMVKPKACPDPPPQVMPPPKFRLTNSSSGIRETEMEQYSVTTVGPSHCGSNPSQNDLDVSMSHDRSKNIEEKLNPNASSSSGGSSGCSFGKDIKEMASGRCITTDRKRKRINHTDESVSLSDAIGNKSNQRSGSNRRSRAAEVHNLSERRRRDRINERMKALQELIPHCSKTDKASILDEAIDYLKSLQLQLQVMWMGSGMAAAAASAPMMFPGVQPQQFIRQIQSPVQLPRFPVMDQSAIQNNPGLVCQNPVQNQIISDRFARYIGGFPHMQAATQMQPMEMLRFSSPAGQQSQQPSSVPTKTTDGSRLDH
The experiment can be described thus: two-hybrid.

B1: MPK7, yeast two-hybrid fusion (enzyme, UniProt Q39027 1-368)
chain: MAMLVEPPNGIKQQGKHYYSMWQTLFEIDTKYVPIKPIGRGAYGVVCSSINRETNERVAIKKIHNVFENRVDALRTLRELKLLRHVRHENVIALKDVMLPANRSSFKDVYLVYELMDTDLHQIIKSSQSLSDDHCKYFLFQLLRGLKYLHSANILHRDLKPGNLLVNANCDLKICDFGLARTSQGNEQFMTEYVVTRWYRAPELLLCCDNYGTSIDVWSVGCIFAEILGRKPIFPGTECLNQLKLIINVVGSQQESDIRFIDNPKARRFIKSLPYSRGTHLSNLYPQANPLAIDLLQRMLVFDPTKRISVTDALLHPYMAGLFDPGSNPPAHVPISLDIDENMEEPVIREMMWNEMLYYHPEAEISNA
Consider B1, for which the binding result is given as “no binding”.
